{"source": "patent US5710018A", "about": "“Mammalian influx peptide transporter” (Eli Lilly and Company, priority 1995, dated 1998)", "biological_target": "T1, influx peptide transporter (Homo sapiens, UniProt Q12864)", "T1 sequence (Q12864 23-832 K115E/E734D/E739A)": "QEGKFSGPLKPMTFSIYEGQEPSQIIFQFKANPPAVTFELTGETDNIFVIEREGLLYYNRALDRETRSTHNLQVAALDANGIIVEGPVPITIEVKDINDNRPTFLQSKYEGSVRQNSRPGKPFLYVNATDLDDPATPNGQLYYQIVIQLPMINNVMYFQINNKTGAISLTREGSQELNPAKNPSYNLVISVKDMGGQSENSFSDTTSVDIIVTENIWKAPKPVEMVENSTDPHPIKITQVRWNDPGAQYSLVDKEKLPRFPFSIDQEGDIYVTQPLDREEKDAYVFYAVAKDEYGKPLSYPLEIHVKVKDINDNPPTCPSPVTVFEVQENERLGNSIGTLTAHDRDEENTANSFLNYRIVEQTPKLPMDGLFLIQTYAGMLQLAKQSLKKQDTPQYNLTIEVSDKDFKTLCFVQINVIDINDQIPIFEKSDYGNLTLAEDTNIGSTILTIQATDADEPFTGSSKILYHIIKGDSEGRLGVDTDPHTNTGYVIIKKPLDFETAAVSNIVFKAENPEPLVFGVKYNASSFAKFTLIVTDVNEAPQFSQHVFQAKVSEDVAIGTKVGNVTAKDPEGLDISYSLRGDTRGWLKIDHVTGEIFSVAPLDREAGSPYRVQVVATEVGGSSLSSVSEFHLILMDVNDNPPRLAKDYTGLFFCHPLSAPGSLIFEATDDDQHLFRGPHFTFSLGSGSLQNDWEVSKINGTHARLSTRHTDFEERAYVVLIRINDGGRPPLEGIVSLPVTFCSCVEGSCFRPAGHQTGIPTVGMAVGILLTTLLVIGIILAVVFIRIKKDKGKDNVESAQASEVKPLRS", "conditions": "Clone 9 versus control cells"}
{"smiles": "CC1=C(C(=O)O)N2C(=O)[C@@H](NC(=O)[C@H](N)c3ccccc3)[C@H]2SC1", "note": "[Cephalexin, cephalexin]", "values": [{"measurement": "uptake of [14C]cephalexin by transfectant compared with the control", "result": "significantly higher"}]}
